Laboratory results from US20220041736A1.
These are yes or no findings as the source states them, for the method shown. A result given as binding can be weak or reduced; the word gives no strength.

Biological target: human CD3 (on human CD3 positive T cell lines) (human)
Experiment: FACS, HPB-ALL cells, periplasmic supernatant

binding: binds
B1: anti-CD3 single domain antibody CD3 3D-H11 (VHH)
VHH: EVQLVESGGGLVQPGGSLRLSCAASGFTFDDYGMSWVRQAPGKWLEWVSDISWNGGSTYYADSVKGRFTISRDNAENTLYLQMNSLKPDDTAVYYCAKMGEGGWGANDYWGQGTQVTVSS
